Some entries share one result that the patent states for a list of compounds.
Tested on: APEX2-expressing regions
Test: Osmium-resistant fluorescence after OsO4 treatment of probe-stained cells
Type: cell-based
Conditions: 0.1% OsO4, confocal microscopy

SMILES: CC[n+]1c(/C=C/c2ccc(O)cc2)sc2ccccc21 [JF, (E)-3-ethyl-2-(4-hydroxystyryl)benzo[d]thiazol-3-ium]
- retained osmium-resistant fluorescence intensity after osmium treatment: 70-80%
